Data: article doi:10.1101/2023.12.19.571263
These are yes or no findings as the source states them, for the method shown. Binding seen in cells or lysates may run through a third protein. Some entries that bind do so weakly or less than the wild type.

By UniProt entry, the sequences of proteins in these tests, tags left out.
UniProt Q13263: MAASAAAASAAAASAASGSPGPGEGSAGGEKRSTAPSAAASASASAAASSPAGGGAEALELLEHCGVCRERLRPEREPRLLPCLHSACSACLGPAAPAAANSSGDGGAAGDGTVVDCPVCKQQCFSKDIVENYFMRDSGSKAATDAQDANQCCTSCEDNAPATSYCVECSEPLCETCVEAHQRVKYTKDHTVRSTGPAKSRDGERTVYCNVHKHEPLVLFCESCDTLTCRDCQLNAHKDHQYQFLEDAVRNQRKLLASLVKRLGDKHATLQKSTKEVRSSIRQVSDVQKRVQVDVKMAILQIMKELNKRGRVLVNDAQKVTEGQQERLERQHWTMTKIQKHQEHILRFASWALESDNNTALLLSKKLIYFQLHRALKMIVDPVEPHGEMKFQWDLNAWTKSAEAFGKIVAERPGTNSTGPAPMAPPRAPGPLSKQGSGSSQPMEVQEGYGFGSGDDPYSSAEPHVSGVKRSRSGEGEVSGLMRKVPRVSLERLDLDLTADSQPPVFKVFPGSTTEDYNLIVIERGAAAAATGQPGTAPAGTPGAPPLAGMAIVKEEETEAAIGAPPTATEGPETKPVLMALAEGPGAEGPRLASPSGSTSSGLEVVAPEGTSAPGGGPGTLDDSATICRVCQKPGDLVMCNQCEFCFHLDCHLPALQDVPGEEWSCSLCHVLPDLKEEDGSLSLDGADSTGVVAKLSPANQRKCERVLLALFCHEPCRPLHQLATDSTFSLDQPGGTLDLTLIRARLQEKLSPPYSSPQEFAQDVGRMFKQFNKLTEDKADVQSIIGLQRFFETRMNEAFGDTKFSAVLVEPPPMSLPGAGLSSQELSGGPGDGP

Target: T1, YARS, cytoplasmic Tyrosyl (Y) tRNA synthetase (human (endogenous in MCF7 and LS174T)) (UniProt P54577)
T1 sequence: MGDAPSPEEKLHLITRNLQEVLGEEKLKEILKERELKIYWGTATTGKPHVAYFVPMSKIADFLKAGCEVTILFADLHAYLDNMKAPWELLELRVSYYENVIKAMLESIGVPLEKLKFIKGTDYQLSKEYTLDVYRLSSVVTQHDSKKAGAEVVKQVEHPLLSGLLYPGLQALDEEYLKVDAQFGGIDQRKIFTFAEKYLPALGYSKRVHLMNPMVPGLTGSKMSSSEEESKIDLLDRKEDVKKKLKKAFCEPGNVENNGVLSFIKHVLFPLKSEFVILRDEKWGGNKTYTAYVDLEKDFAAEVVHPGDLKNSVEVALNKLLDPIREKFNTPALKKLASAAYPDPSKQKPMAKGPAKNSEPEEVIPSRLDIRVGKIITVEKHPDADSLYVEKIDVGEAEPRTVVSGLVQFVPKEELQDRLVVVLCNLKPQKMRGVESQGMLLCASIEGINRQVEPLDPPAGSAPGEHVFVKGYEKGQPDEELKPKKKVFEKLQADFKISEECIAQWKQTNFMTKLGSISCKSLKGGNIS
Assay: co-IP

binding: binds
Substance: Trim28 transcriptional regulator (from UniProt Q13263 1-835)
